In PubChem BioAssay AID330 (DTP/NCI, 2004):
The list does not hold the whole screen: it is rich in T/C values a quarter to a half above the control, in often repeated tests (any T/C) and in doses without a T/C. Further doses and runs are listed elsewhere. T/C gives the treated animals as a percentage of the vehicle group. Some doses have a count of surviving animals in place of a T/C: the source files T/C as zero there, which appears to mark a toxic dose or a test without result, not a measured value. Some doses without a T/C left all or most animals alive at the check, yet need not have been tolerated: the source hardly ever lists a survival T/C far under the control, and the zero likely stands for such cases as well. Survivors were counted at the toxicity check, usually on the fifth day, unless a day is given; later deaths do not show. Schedule codes are those of the source, taken here to give the interval after Q, in days (D) or hours (H), and the number of doses after X. Some doses were run more than once; the results are listed from low to high. For survival time, this PubChem deposit counts one and a half times the control or more as active, and values a quarter to a half above the control carry no call in these data; other NCI protocols may use other cut-offs. Some T/C values are followed by the survivors on the day toxicity was checked, most often the fifth; where none is given, no animal had died by that day.

Tested on: P388 leukemia ip, CD2F1 mice, survival T/C
Test: NCI In Vivo Anticancer Drug Screen. Data for tumor model P388 Leukemia (intraperitoneal) in CD2F1 (CDF1) mice
Conditions: T/C endpoint: median survival time, higher T/C = longer survival
[1] = dose: 240.0 mg/kg/injection, schedule: Q01DX005 (ip), vehicle: Klucel (hydroxypropylcellulose) (HPC)
[2] = dose: 50.0 mg/kg/injection, schedule: Q01DX005 (ip), vehicle: Klucel (hydroxypropylcellulose) (HPC)
[3] = dose: 200.0 mg/kg/injection, schedule: Q01DX005 (ip), vehicle: Klucel (hydroxypropylcellulose) (HPC)
[4] = dose: 50.0 mg/kg/injection, schedule: Q01DX005 (ip), vehicle: saline with Tween-80
[5] = dose: 100.0 mg/kg/injection, schedule: Q01DX005 (ip), vehicle: saline with Tween-80
[6] = dose: 200.0 mg/kg/injection, schedule: Q01DX005 (ip), vehicle: saline with Tween-80

CC1=NN(c2ccccc2)C(=O)C1C1c2ccccc2S(=O)(=O)c2ccccc21 (stereo not drawn)
survivor count [1]: 6 of 6

O=[N+]([O-])c1ccc(N/N=C\c2c(Cl)n(-c3ccccc3)c3ccccc23)cc1
survivor count (dose: 100.0 mg/kg/injection, schedule: Q01DX001 (ip), vehicle: saline): 6 of 6
survivor count (dose: 200.0 mg/kg/injection, schedule: Q01DX001 (ip), vehicle: saline): 6 of 6

C[n+]1c2ccccc2c(N)c2ccccc21
survivor count (dose: 60.0 mg/kg/injection, schedule: Q04DX002 (ip), vehicle: saline with Tween-80): 1 of 6
survivor count (dose: 120.0 mg/kg/injection, schedule: Q04DX002 (ip), vehicle: saline with Tween-80): 1 of 6

NS(=O)(=O)c1ccc(N=Nc2nc3[nH]c(=O)[nH]c(=O)c3[nH]2)cc1
survivor count [2]: 0 of 6
survivor count (dose: 100.0 mg/kg/injection, schedule: Q01DX005 (ip), vehicle: Klucel (hydroxypropylcellulose) (HPC)): 0 of 6
survivor count [3]: 0 of 6

COc1cc(Cc2nnc(N)[nH]c2=O)cc(OC)c1OC
survivor count (dose: 25.0 mg/kg/injection, schedule: Q01DX009 (ip), vehicle: saline with Tween-80): 6 of 6
survivor count (dose: 50.0 mg/kg/injection, schedule: Q01DX009 (ip), vehicle: saline with Tween-80): 5 of 6

COc1cccc(CN2CCCN(/N=C/c3c4c(O)c5c(O)c(C)c6c(c5c3O)C(=O)C(C)(O/C=C/C(OC)C(C)C(OC(C)=O)C(C)C(O)C(C)C(O)C(C)/C=C/C=C(/C)C(=O)N4)O6)CC2)c1 (stereo not drawn)
survivor count (dose: 200.0 mg/kg/injection, schedule: Q01DX009 (ip), vehicle: saline with Tween-80): 4 of 6

CC(=O)Nc1nc(Cl)c2ncn(C3CC(OC(=O)c4ccc(C)cc4)C(COC(=O)c4ccc(C)cc4)O3)c2n1 (stereo not drawn)
survivor count [2]: 6 of 6

CC(NNC(=S)N1CC2CCC(CC2)C1)c1nccc2ccccc12 (stereo not drawn)
survivor count [4]: 2 of 5
survivor count [5]: 2 of 5
survivor count [6]: 1 of 6

C/C(=N/NC(N)=O)c1cn[nH]c1C
survivor count [1]: 0 of 6

O=C(O)c1cc2ccccc2c(Br)c1O.O=[N+]([O-])C1CCC(O)C2[N-]CCCC21.[Cu+]
survivor count (dose: 25.0 mg/kg/injection, schedule: Q01DX005 (ip), vehicle: saline with Tween-80): 3 of 6
T/C [4]: 103, 107 [5 of 6 alive], 123 % of control
survivor count [4]: 4 of 6
survivor count [5]: 0 of 6, 1 of 6, 2 of 6
survivor count [6]: 0 of 6

c1cc[c]([Bi]([c]2ccccc2)[c]2ccccc2)cc1
T/C (dose: 50.0 mg/kg/injection, schedule: Q01DX009 (ip), vehicle: Klucel (hydroxypropylcellulose) (HPC)): 133 % of control
survivor count (dose: 100.0 mg/kg/injection, schedule: Q01DX009 (ip), vehicle: Klucel (hydroxypropylcellulose) (HPC)): 6 of 6
survivor count (dose: 200.0 mg/kg/injection, schedule: Q01DX009 (ip), vehicle: Klucel (hydroxypropylcellulose) (HPC)): 3 of 6 and 4 of 6

CP1(=O)CCc2c1ccc1ccccc21 (stereo not drawn)
survivor count (dose: 400.0 mg/kg/injection, schedule: Q04DX002 (ip), vehicle: saline): 2 of 6

C[CH2][Ge]([Cl])([Cl])[CH2]C
survivor count [3]: 2 of 5

CCOC(OCC)/C(=C\N(C)C)N=C(C#N)C#N
survivor count [6]: 0 of 6

CC(C)[C@](O)(C(=O)OCC1=CCN2CC[C@@H](O)[C@@H]12)[C@H](C)O
T/C (dose: 25.0 mg/kg/injection, schedule: Q01DX009 (ip), vehicle: water): 128 % of control
T/C (dose: 400.0 mg/kg/injection, schedule: Q01DX009 (ip), vehicle: water): 128 and 133 % of control [5 of 6 alive]
survivor count (dose: 800.0 mg/kg/injection, schedule: Q01DX009 (ip), vehicle: saline): 0 of 6
survivor count (dose: 800.0 mg/kg/injection, schedule: Q01DX009 (ip), vehicle: water): 0 of 6
survivor count (dose: 1600.0 mg/kg/injection, schedule: Q01DX009 (ip), vehicle: distilled water + Tween-80): 0 of 6

COC(=O)c1noc2c1CSc1ccccc1-2
survivor count (dose: 400.0 mg/kg/injection, schedule: Q04DX002 (ip), vehicle: saline with Tween-80): 6 of 6
